These are yes or no findings as the source states them, for the method shown. For some of these results: Binding seen in cells or lysates may run through a third protein. Some binding calls cover weakened binding; strength is not graded here.
Tests used:
[1] = molecular target: FLAG-tagged RBP-Jκ (F-RBP-Jκ) (UniProt Q06330); test: native gel or EMSA
[2] = molecular target: untagged Sp3 (UniProt Q02447); test: native gel or EMSA
[3] = molecular target: Sp3 (human (endogenous in 293T)) (UniProt Q02447); test: native gel or EMSA
[4] = molecular target: GFP-ORF50(1–590) (Kaposi's sarcoma-associated herpesvirus (KSHV)) (UniProt F5HCV3); test: co-IP
[5] = molecular target: GFP-ORF50(1–490) (Kaposi's sarcoma-associated herpesvirus (KSHV)) (UniProt F5HCV3); test: co-IP

Protein sequences, listed by entry. Tags and fused reporters are not part of them. Lines headed by an entry give the natural chain unless they say otherwise; changes in a name come on top. Residues count along the entry.
UniProt Q06330: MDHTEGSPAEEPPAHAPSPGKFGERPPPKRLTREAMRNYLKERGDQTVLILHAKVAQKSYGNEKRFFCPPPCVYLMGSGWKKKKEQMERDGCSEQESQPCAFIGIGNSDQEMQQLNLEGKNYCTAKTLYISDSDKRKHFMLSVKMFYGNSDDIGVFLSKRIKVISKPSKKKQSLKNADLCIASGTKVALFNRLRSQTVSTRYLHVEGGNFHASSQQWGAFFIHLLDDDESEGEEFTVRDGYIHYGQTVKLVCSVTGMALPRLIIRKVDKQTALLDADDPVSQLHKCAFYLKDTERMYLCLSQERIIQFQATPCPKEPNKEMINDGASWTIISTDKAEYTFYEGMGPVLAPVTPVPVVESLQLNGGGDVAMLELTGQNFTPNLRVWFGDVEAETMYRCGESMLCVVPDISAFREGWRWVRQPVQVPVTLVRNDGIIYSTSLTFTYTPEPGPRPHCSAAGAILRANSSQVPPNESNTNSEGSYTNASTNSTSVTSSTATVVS
UniProt Q02447: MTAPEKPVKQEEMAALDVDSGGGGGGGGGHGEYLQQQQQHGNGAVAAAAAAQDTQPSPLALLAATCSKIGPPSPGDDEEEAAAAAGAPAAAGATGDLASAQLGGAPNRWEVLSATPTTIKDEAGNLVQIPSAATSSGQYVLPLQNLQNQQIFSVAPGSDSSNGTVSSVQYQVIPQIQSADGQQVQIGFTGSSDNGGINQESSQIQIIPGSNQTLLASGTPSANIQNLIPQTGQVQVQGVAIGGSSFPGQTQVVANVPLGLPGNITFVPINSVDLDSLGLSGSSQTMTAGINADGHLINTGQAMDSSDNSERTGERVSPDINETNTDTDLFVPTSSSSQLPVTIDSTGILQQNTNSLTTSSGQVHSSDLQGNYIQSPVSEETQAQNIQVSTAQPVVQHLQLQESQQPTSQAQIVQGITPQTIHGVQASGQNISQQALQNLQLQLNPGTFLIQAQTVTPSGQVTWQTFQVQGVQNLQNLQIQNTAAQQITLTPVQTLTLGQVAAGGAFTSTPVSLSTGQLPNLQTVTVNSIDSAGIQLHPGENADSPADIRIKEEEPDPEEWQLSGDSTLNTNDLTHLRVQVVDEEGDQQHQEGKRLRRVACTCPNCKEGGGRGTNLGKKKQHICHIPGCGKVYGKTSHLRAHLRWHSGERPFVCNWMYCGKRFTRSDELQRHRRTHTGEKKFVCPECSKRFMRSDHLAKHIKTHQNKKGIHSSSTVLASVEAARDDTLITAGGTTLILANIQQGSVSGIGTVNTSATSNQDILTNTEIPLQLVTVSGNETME
UniProt F5HCV3: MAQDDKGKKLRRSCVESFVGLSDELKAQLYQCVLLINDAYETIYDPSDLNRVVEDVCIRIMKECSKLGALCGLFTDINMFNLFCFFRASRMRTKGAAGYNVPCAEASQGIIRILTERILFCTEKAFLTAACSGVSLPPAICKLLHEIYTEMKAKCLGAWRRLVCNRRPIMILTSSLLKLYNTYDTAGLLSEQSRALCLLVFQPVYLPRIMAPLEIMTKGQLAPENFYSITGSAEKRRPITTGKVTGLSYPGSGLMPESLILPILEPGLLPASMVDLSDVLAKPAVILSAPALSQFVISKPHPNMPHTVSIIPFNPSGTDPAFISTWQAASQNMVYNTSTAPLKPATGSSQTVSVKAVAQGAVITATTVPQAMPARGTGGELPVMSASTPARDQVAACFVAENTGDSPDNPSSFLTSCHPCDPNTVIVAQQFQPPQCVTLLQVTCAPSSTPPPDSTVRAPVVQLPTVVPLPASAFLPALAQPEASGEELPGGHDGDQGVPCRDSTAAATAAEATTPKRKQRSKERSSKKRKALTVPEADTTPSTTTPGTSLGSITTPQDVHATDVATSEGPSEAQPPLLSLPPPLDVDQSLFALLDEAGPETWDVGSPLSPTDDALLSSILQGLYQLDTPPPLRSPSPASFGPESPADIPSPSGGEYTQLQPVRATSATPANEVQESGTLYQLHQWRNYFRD
GFP-ORF50(1–590) (Kaposi's sarcoma-associated herpesvirus (KSHV)): residues 1-590 of F5HCV3
GFP-ORF50(1–490) (Kaposi's sarcoma-associated herpesvirus (KSHV)): residues 1-490 of F5HCV3

Row | Substance | binding [1] | binding [2] | binding [3] | binding [4] | binding [5]
1 | F-ORF50(1–490) (from UniProt F5HCV3 1-490) (domain or fragment) | binds | binds | binds |  | 
2 | RBP-Jκ (from UniProt Q06330 1-500) |  |  |  | binds | binds
3 | Sp3 (from UniProt Q02447 1-781) |  |  |  | binds | binds

Source: PMC7459565
